{
  "source": "patent US20200368322A1",
  "about": "“METHODS OF IDENTIFYING AND USING AGENTS FOR TREATING DISEASES ASSOCIATED WITH INTESTINAL BARRIER DYSFUNCTION” (Yeda Research and Development Co. Ltd., priority 2018, published 2020)",
  "tested_on": "tight junctions of Caco2 cells",
  "assay": "Caco2 tight junction morphology (cingulin or ZO-1 staining, tortuosity)",
  "format": "cell-based, human",
  "conditions": "histamine plus anti-histamine drug",
  "description": "CaCo-2 cells were purchased from ATCC. Cells were routinely grown in regular tissue culture medium (DMEM, 10% FCS, penicillin/streptomycin, GlutaMAX). For experiments with differing glucose concentrations, cells were routinely cultured in low-glucose DMEM (1 g/l glucose). Cells were seeded onto 96-well glass-bottom plates coated with either fibronectin or collagen 70 000 cells/well and allowed to grow for 24 hours to form confluent monolayer before indicated treatments.\nFor high resolution images of manually selected representative fields, a DeltaVision wide field fluorescent microscope (GE Healthcare) equipped with 40×UPlanFLN or 60×/1.42 PlanApo N oil objective (Olympus) was used. For multi-well plate scanning, the following automated imaging stations were used: DeltaVision microscope with plate scanning regiment, Hermes imaging station (IDEA bio-Medical) or ImagExpress microXL imaging station (Molecular Devices) equipped by 40× air objectives. […]\nCell images were segmented using Morphological Segmentation ImageJ plug-in and junction tortuosity was calculated as a ratio between junction length and Euclidian distance between its ends.",
  "note": "At least one compound was matched to its structure with a doubt left.",
  "data": [
    {"smiles": "CNC(=C[N+](=O)[O-])NCCSCc1ccc(CN(C)C)o1", "note": "[Ranitidine, reference compound]", "values": [
      {"measurement": "disruptive effect of histamine on tight junction morphology", "value": "prevents disruptive effect of histamine on tight junction morphology"}
    ]}
  ]
}
